Source: PubChem BioAssay AID2549 (National Center for Advancing Translational Sciences (NCATS), 2010)
Where “and” joins values, the source holds several entries; their conditions need not be identical. Identical values can stand only once. In all, about 240,000 compounds went through this assay and about 1,300 (0.54%) were called active. This list was built around the results that the source calls inconclusive (neither active nor inactive); the mix of calls is not that of the screen. The call rests on the fitted dose curve; in most records, active means well fitted inhibition curve with a large enough effect; inconclusive means small, poorly fitted or top-dose-only effect; inactive means flat fitted curve, though single readings scatter. Where the call is inconclusive, the potency comes from a doubtful curve fit.

Amino acid sequences for entries named in this document (tags omitted). A change or cut given only in a name is not applied to a line headed by its entry.
UniProt P46063: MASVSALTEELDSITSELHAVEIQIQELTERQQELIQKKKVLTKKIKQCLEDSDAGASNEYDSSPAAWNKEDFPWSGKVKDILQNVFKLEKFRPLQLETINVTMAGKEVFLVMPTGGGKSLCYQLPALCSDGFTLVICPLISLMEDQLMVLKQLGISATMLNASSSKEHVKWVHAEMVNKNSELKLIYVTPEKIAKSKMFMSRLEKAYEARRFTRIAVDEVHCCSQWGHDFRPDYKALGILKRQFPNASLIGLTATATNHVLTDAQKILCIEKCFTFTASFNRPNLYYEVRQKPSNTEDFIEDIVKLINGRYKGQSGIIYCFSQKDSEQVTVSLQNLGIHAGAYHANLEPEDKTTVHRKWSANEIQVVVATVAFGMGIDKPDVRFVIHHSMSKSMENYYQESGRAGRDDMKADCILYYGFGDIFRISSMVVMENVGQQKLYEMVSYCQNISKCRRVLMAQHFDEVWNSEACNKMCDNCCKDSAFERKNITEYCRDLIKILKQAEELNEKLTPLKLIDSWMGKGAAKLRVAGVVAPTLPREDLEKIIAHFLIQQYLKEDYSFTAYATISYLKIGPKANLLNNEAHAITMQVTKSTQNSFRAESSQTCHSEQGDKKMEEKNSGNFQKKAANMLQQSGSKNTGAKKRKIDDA

biological target: ATP-dependent DNA helicase Q1 (Homo sapiens) (UniProt P46063); assay: qHTS Assay for Inhibitors of RecQ-Like Dna Helicase 1 (RECQ1); conditions: RECQ1 DNA unwinding, red fluorescence kinetic read; activity, negative = inhibition: at 57.3 µM (top of the series); series mostly up to 57.3 µM; further: nearly all actives have a fitted effect of over 30% in size;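 on activity, negative = inhibition: plate controls were vehicle for no effect and no enzyme for full effect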
In short: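 50 nM RECQ1T1 preincubated 15 min with compound in Tris pH 8.0 buffer with MgCl2, DTT, Tween-20 and 2.5 ug/ml poly(dI-dC); started with 200 nM TAMRA/BHQ-2 forked duplex and 2 mM ATP. Unwinding read as fluorescence (525/598 nm), two reads 2 h apart.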
Potency means the concentration at half of the fitted maximal effect.

Row | Compound | Potency | outcome | activity, negative = inhibition
1 | Cc1cc(C)nc(SCc2ccc(C(=O)N/N=C3\CCCC(=O)C3)cc2)n1 | active: 22.4 µM |  | 
2 | O=C(/C=C/c1ccco1)Nc1scc(-c2ccccc2)c1C(=O)O | inconclusive: 31.6 µM [inhibitor, single point] |  | 
3 | Cc1ccnc(NC(=S)NC(=O)/C=C/c2ccco2)c1 | inconclusive: 25.1 µM [inhibitor, single point] |  | 
4 | O=C(CSc1nnc(CNc2cccc(C(F)(F)F)c2)n1Cc1ccco1)NCc1ccco1 |  | inactive | 
5 | O=C(Nc1ccc(-c2nc3ccc(NC(=O)c4cccs4)cc3[nH]2)cc1)c1cccs1 | inconclusive: 12.6 µM [inhibitor, partial curve, poor fit] |  | 
6 | COc1ccc(CN(CCC(c2ccc(F)cc2)C2CCOC(C)(C)C2)C(=O)c2ccco2)cc1 (stereo not given) | active: 25.1 µM |  | 
7 | C=CCn1c(SCC(=O)NCCOC)nc2scc(-c3ccco3)c2c1=O | inconclusive: 14.1 µM [inhibitor, partial curve] |  | 
8 | CC(C)NC(=O)CC(=O)N/N=C/c1cccs1 |  |  | inactive: -7.21%
9 | Oc1ccc(-c2csc(-c3ccccc3)n2)cc1O |  |  | inactive: -5.43%
10 | NC(=O)NCc1cccnc1 | inconclusive: 0.178 µM [inhibitor, full curve] |  | 
11 | COc1ccc(OC)c(/C=C/C(=O)Nc2ccc(OC)nc2)c1 | inconclusive: 5.01 µM [inhibitor, partial curve] |  | 
12 | Oc1ccc(C2CNCCc3c2cc(O)c(O)c3Cl)cc1 (stereo not given) | active: 31.6 µM and active: 22.4 µM |  | 
13 | COc1ccc2c(c1)CCc1c(C(=O)N3CCCCCC3)noc1-2 | inconclusive: 6.31 µM [inhibitor, single point] |  | 
14 | CC1CC(C)(C)CC2(C1)NC(=S)N(c1ccccc1)N2 (stereo not given) |  |  | inactive: -5.77%
15 | CCOC(=O)OCC1OC(C#Cc2ccccc2)C=CC1Oc1cccc(N(C)C)c1 (stereo not given) |  |  | inactive: -23% [at 11.5 µM]
16 | N#CC1=C(N)C(C#N)(C#N)C(c2ccc[nH]2)C2CCCC=C12 (stereo not given) | inconclusive: 28.2 µM [inhibitor, partial curve, poor fit] |  | 
17 | NCCCC[C@H](NC(=O)[C@@H]1CCCN1C(=O)[C@@H](N)CCCN=C(N)N)C(=O)N1CCC[C@H]1C(=O)N[C@@H](CCC(N)=O)C(=O)N[C@@H](CCC(N)=O)C(=O)N[C@@H](Cc1ccccc1)C(=O)O |  |  | inactive: -10.8%
18 | COC(=O)c1cnc(Nc2cccc(C(F)(F)F)c2)c([N+](=O)[O-])c1 |  | inactive | 
19 | COc1ccc(S(=O)(=O)NCCSCc2ccco2)cc1OC | inconclusive: 35.5 µM [inhibitor, single point] |  | 
20 | C(=C\c1ccccc1)/CSc1nnc(-c2cnccn2)n1Cc1ccco1 | inconclusive: 22.4 µM [inhibitor, single point] |  | 
21 | CC1=[N+](C)c2c(ccc3cccnc23)C1(C)C | inconclusive: 6.31 µM [inhibitor, single point] |  | 
22 | CNc1ncnc2c1ncn2[C@H]1C[C@H](O)[C@@H](CO)O1 |  |  | inactive: 16.5%
23 | O=[N+]([O-])c1ccc(-c2cnc(SCc3ccccc3Cl)[nH]2)cc1 | inconclusive: 35.5 µM [inhibitor, single point] |  | 

Row | Compound | Potency | outcome | activity, negative = inhibition
24 | COc1cc(OC)c2ccc(=O)oc2c1C(CCN1CCN(c2ccccc2)CC1)c1ccc2c(c1)OCO2 (stereo not given) | inconclusive: 3.16 µM [inhibitor, full curve, poor fit] |  | 
25 | CC(C)Nc1oc(-c2ccccc2)nc1-c1cccc2ccccc12 |  |  | inactive: -1.59%
26 | Nc1ccc(Nc2ccccc2N)cc1 |  |  | inactive: 0.0478%
27 | COCc1cc(=O)n2[nH]c(-c3ccsc3-n3c(C)ccc3C)cc2n1 | inconclusive: 39.8 µM [inhibitor, single point] |  | 
28 | Oc1cccc(/C=N/Nc2ncnc3c2ncn3Cc2ccccc2)c1 |  |  | inactive: -3.89%
29 | C=CCOC(=O)C1=C[C@H](c2ccc(C(F)(F)F)cc2)[C@@H](CCCO)[C@H](OCC)O1 | inconclusive: 8.91 µM [inhibitor, partial curve] |  | 
30 | COc1ccc(/C=N/Nc2nc(-c3ccc(C)cc3)c(NC(C)=O)s2)cc1OC | inconclusive: 0.158 µM [inhibitor, partial curve, poor fit] |  | 
31 | CCOC(=O)C1(Cc2cccc(F)c2)CCN(Cc2ccon2)CC1 |  | inactive | 
32 | Cc1cc(C(F)(F)F)nc(CCNCc2c(C(=O)N3CCCC3)nc3ccccn23)n1 | inconclusive: 7.08 µM [inhibitor, single point] |  | 
33 | C=CCN1C(=O)C(CC(=O)O)SC1=Nc1ccc(N=Nc2ccccc2)cc1 (stereo not given) | inconclusive: 39.8 µM [inhibitor, single point] |  | 
34 | COc1cccc(NC(=O)Cn2c(=O)oc3ccccc32)c1 | inconclusive: 0.631 µM [inhibitor, full curve] |  | 
35 | O=C(Nc1nc(-c2ccc3c(c2)OCO3)cs1)C1COc2ccccc2O1 (stereo not given) | inconclusive: 1.41 µM [inhibitor, full curve] |  | 
36 | NS(=O)(=O)c1ccc(N=Nc2ccc(=O)[nH]c2O)cc1 |  |  | inactive: -0.0728%
37 | Clc1ccccc1CSc1nnc(-c2ccco2)c(-c2ccco2)n1 | active: 35.5 µM |  | 
38 | O=C(c1cccc(OC(F)F)c1)N1CCN(c2ncccn2)CC1 | inconclusive: 7.94 µM [inhibitor, single point] |  | 
39 | COC(=O)C1C(O)CC[C@H]2CN3CCc4c([nH]c5ccccc45)C3C[C@H]12 (stereo not given in full) |  |  | inactive: -2.94%
40 | COc1cc(/C=C(/C(=O)c2cccs2)c2nc3ccccc3[nH]2)cc(OC)c1O | inconclusive: 28.2 µM [inhibitor, partial curve] |  | 
41 | O=C(CCc1ccc(O)cc1)c1c(O)cc(O)cc1O[C@H]1OC(CO)C(O)C(O)C1O (stereo not given in full) |  |  | inactive: -6.48%
42 | CCn1c(CCCOc2ccc(Cl)cc2Cl)nnc1SCC(=O)Nc1cccc(F)c1 | active: 12.6 µM |  | 
43 | CC1OC(OCC2OC(Oc3c(-c4ccc(O)cc4)oc4cc(O)cc(O)c4c3=O)C(O)C(O)C2O)C(O)C(O)C1O (stereo not given) | inconclusive: 39.8 µM [inhibitor, single point] |  | 
44 | COc1cc(/C=C(/C#N)c2nc3ccccc3[nH]2)ccc1OCC(=O)Nc1ccccc1C |  |  | inactive: 3.48%
45 | Cc1c(Cc2ccccc2)sc(N)c1C(N)=O | inconclusive: 3.55 µM [inhibitor, full curve] |  | 
